Reference: article PMC7346168
Residue numbers refer to the chain shown, from its start. No constants are given. Whether binding was seen depends on the method and setting. In cells and extracts the contact can be indirect. These calls come from enrichment with a bait or labelling near it, and not all partners need be listed. Values belong to the substance of their own block, whether it stands above or below them.

The chains behind the UniProt entries cited, without tags or fusion partners. Where a name states a change or a piece, a line headed by the entry shows the natural chain unless it says otherwise. Residues count along the entry.
UniProt Q9SPK5: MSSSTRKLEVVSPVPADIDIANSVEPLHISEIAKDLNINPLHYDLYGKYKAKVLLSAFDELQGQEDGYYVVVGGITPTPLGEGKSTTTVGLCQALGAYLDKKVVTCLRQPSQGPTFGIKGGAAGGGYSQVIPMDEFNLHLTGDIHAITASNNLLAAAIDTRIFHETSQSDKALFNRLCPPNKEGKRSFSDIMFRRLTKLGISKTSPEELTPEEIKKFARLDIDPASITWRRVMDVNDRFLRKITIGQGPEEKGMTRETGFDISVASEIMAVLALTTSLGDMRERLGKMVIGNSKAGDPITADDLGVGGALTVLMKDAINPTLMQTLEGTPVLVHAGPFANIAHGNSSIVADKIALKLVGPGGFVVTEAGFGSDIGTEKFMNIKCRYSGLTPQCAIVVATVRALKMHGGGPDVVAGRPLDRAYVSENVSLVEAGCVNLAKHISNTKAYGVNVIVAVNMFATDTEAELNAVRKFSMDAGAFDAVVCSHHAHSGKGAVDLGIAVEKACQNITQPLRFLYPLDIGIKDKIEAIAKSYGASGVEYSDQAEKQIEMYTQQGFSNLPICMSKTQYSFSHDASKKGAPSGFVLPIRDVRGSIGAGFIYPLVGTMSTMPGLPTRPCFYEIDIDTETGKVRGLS
UniProt Q8W583, residues 50-190: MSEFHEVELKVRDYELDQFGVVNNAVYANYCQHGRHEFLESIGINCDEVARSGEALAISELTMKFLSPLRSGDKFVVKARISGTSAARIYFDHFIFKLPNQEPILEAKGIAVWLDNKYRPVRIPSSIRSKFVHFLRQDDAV
UniProt Q9S7H1, residues 46-208: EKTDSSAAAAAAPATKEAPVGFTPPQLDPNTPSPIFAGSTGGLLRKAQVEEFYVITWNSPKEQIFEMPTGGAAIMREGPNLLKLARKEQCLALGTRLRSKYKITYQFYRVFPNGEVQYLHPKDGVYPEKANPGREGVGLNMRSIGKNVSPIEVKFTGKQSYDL
UniProt P34791, residues 80-260: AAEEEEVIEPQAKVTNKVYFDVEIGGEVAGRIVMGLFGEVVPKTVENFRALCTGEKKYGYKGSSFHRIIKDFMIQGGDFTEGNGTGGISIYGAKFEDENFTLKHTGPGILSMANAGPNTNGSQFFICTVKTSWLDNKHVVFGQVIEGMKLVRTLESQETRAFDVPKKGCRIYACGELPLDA
UniProt Q39129: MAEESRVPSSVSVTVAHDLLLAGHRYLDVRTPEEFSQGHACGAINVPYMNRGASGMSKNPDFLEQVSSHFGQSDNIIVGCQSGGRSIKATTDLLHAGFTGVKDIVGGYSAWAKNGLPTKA
UniProt P17745, residues 68-476: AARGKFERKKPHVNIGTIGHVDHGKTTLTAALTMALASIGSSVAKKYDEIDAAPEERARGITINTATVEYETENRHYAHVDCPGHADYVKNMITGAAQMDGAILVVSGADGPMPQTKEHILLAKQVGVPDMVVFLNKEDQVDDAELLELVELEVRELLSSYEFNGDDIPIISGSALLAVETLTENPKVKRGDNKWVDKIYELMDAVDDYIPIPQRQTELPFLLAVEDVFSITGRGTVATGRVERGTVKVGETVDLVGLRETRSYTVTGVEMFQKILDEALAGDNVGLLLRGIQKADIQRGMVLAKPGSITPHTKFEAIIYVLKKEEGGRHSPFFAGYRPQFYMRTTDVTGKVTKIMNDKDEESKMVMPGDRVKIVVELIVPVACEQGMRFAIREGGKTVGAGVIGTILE
UniProt P23321, residues 86-332: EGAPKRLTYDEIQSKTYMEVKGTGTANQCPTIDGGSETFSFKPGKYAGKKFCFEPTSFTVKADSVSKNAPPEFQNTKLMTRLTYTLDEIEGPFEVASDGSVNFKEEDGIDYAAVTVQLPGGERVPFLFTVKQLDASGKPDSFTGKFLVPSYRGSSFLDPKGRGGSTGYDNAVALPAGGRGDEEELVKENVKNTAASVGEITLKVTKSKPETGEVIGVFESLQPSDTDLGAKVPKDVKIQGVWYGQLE
UniProt P56757: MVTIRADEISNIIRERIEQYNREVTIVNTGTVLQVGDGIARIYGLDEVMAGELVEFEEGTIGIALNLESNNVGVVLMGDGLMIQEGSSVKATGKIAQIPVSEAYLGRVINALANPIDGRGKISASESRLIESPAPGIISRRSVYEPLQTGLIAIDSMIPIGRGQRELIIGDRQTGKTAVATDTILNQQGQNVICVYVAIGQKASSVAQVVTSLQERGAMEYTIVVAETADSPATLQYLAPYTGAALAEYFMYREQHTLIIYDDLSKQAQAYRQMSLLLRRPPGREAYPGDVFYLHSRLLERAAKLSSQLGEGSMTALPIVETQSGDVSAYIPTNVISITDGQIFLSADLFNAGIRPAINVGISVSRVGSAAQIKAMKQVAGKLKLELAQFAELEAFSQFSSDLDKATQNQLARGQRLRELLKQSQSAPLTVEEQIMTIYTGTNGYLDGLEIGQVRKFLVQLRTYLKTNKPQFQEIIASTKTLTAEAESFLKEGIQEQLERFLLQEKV
UniProt P38418: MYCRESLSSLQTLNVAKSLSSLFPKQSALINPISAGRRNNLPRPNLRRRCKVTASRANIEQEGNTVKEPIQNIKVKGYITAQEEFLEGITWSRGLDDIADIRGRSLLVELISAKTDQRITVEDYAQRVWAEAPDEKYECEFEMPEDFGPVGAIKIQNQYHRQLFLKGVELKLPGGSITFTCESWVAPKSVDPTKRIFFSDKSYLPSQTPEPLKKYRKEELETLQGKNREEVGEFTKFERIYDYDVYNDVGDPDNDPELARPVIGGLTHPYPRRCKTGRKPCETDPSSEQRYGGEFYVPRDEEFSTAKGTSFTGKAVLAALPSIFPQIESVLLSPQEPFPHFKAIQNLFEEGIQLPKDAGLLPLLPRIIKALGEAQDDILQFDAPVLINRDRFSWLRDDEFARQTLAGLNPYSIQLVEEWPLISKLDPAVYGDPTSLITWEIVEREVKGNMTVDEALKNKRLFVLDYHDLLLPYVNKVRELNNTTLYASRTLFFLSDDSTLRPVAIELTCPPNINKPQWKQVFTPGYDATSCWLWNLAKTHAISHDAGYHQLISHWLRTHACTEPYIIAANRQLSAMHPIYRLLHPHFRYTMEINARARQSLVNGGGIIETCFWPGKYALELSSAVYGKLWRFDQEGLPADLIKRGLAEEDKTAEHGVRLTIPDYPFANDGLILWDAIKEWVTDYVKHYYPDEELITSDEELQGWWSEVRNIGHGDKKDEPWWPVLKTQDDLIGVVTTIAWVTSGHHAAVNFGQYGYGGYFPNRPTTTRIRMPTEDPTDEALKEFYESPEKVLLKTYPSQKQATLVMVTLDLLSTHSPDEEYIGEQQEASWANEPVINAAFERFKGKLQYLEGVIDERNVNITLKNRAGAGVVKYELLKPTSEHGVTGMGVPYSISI
UniProt Q6ZY51, residues 55-1196: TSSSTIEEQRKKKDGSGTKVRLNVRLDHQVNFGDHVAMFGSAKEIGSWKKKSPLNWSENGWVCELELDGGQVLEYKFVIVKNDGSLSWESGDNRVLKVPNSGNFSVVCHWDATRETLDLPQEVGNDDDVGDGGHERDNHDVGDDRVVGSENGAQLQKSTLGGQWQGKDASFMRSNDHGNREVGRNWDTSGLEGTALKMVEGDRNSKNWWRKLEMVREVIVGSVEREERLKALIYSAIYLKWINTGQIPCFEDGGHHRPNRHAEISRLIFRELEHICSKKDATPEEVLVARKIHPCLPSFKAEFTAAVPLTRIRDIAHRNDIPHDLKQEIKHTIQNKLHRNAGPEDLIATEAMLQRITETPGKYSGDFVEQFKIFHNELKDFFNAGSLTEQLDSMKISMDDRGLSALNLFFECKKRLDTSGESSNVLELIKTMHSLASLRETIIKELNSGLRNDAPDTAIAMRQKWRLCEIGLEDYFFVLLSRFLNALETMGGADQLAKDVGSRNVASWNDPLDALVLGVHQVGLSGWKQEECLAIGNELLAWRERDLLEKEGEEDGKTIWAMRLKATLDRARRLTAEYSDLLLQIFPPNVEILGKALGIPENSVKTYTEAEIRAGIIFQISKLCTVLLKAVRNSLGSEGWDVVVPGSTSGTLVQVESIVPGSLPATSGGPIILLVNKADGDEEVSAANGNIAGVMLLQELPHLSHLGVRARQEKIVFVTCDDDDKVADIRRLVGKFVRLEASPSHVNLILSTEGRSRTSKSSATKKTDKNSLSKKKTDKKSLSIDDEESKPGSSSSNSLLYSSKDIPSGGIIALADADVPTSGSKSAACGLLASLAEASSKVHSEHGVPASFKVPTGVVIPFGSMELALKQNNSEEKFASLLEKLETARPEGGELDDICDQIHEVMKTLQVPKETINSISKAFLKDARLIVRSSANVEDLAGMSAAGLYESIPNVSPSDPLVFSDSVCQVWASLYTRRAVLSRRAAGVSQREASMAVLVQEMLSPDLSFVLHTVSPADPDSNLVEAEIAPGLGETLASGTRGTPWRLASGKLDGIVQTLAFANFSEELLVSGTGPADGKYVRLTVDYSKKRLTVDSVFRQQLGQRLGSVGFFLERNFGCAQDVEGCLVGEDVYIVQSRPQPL

Legend:
[1] = biological target: T1, 2-CysPRXA C54S (pseudo-reduced variant) (Arabidopsis) (UniProt Q96291); assay: affinity purification with mass spectrometry; oxidizing: his6-tagged 2-CysPRXA variant (3 mg) on Ni-NTA-agarose pretreated with 1 mM H2O2; leaf extract (50 mg protein) made with 1 mM H2O2; 50 mM HEPES pH 8.0, 1 h, 4 °C; stepwise elution with 1 M NaCl, 10 mM DTT, 250 mM imidazole; hits not found on the column without 2-CysPRX; only the target purified
T1 sequence: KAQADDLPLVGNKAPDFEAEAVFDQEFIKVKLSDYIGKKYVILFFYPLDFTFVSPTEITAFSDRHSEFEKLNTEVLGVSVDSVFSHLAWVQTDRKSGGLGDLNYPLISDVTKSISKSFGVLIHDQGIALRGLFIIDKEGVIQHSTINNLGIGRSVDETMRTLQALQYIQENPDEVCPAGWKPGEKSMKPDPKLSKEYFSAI

[2] = biological target: T2, 2-CysPRXA C54D (pseudo-hyperoxidized variant) (Arabidopsis) (UniProt Q96291); assay: affinity purification with mass spectrometry; reducing: his6-tagged 2-CysPRXA variant (3 mg) on Ni-NTA-agarose pretreated with 10 mM DTT; leaf extract (50 mg protein) made with 10 mM DTT; 50 mM HEPES pH 8.0, 1 h, 4 °C; stepwise elution with 1 M NaCl, 10 mM DTT, 250 mM imidazole; hits not found on the column without 2-CysPRX; only the target purified
T2 sequence: T1 sequence with S54D

[3] = biological target: T1, 2-CysPRXA C54S (pseudo-reduced variant) (Arabidopsis); assay: as above
[4] = biological target: T3, 2-cysteine peroxiredoxin A, wild type (2-CysPRXA WT) (Arabidopsis) (UniProt Q96291); assay: affinity purification with mass spectrometry; oxidizing: his6-tagged 2-CysPRXA variant (3 mg) on Ni-NTA-agarose pretreated with 1 mM H2O2; leaf extract (50 mg protein) made with 1 mM H2O2; 50 mM HEPES pH 8.0, 1 h, 4 °C; stepwise elution with 1 M NaCl, 10 mM DTT, 250 mM imidazole; hits not found on the column without 2-CysPRX; only the target purified
T3 sequence: T1 sequence with S54C

[5] = biological target: T2, 2-CysPRXA C54D (pseudo-hyperoxidized variant) (Arabidopsis); assay: as above
[6] = biological target: T3, 2-cysteine peroxiredoxin A, wild type (2-CysPRXA WT) (Arabidopsis); assay: affinity purification with mass spectrometry; reducing: his6-tagged 2-CysPRXA variant (3 mg) on Ni-NTA-agarose pretreated with 10 mM DTT; leaf extract (50 mg protein) made with 10 mM DTT; 50 mM HEPES pH 8.0, 1 h, 4 °C; stepwise elution with 1 M NaCl, 10 mM DTT, 250 mM imidazole; hits not found on the column without 2-CysPRX; only the target purified
[7] = biological target: T3, 2-cysteine peroxiredoxin A, wild type (2-CysPRXA WT) (Arabidopsis); assay: affinity purification with mass spectrometry; same pull down as a1 and a2, hits compiled from the results with all variants, redox and elution conditions; the redox condition is not told for the hit; only the target purified
[8] = biological target: T1, 2-CysPRXA C54S (pseudo-reduced variant) (Arabidopsis); assay: as above

Substance: Formate--tetrahydrofolate ligase (from UniProt Q9SPK5 1-634)
binding [1]: binds

Substance: Acyl-ACP thioesterase ATL3 (from UniProt Q8W583 50-190)
binding [2]: binds

Substance: Photosystem I reaction center subunit II-1 (from UniProt Q9S7H1 46-208)
binding [3]: binds

Substance: Peptidyl-prolyl isomerase CYP20-3 (leaf protein) (from UniProt P34791 80-260)
binding [5]: binds

Substance: Transaldolase-like protein
binding [6]: binds

Substance: DAHP synthase 2
binding [6]: binds

Substance: Thiosulfate sulfurtransferase 16 (from UniProt Q39129 1-120)
binding [5]: binds

The remaining lines, values ahead:

binding [4]: binds
Substance: Elongation factor 1 alpha (AT4G20360) (from UniProt P17745 68-476)

binding [3]: binds
Substance: Putative protein (At2G22230)

binding [5]: binds
Substance: Glutathione reductase

binding [5]: binds
Substance: AT5g64380/MSJ1_22

binding [1]: binds
Substance: Oxygen-evolving enhancer protein 1-1 (from UniProt P23321 86-332)

binding [3]: binds
Substance: AIR carboxylase like protein

binding [1]: binds
Substance: ATPase alpha subunit (from UniProt P56757 1-507)

binding [7]: binds
binding [8]: binds
Substance: LIPOXYGENASE 2 (leaf protein) (from UniProt P38418)

binding [2]: binds
Substance: Phosphoglucan, water dikinase (from UniProt Q6ZY51 55-1196)
